This sample is rich in variants without activity.
B1: tRNA (parent)
chain: GUUCCGUUGGCGUAAUGGUAACGCGUCUCCCUCCUAAGGAGAAGACUGCGGGUUCGAGUCCCGUACGGAACG

Variants of: B1
Test: yeast fitness relative to wild type (ratio to wild type); higher = fitter; tRNA-Arg(CCU), competitive growth, 37 C, YPD
Method in brief: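 Amplicons of the tRNA-Arg(CCU) gene were sequenced, 100-nucleotide paired-end, from the start population and from each end population of a pooled yeast competition. The competition, in six parallel replicates, lasted 24 hours in YPD at 37°C. Fitness relative to wild type was calculated from changes in genotype frequencies. Genotypes had to have ≥ 100 starting reads, and estimates < 0.5 were set to 0.5.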
For GUUCCGUUGGCGUUAUGAUAACGCGUCUCCCUCCUAAGGAGAAGACUGCGGGAUCGAGUCCCGAACGGAACG, the yeast fitness was ≤ 0.5.
In the case of GUUACGUUGGCCUAAUGGCAACGGGUCUCCCUCCUAAGGAGAUGACUGCGGGUUCGAGUCCCGUACGGAACG, the yeast fitness is reported as ≤ 0.5.
In the case of GUUCCGUUGGCGUAAUGGUAACGCGUCUCCAUCCUAAGGAGAAGACUGCGGGUUCGCGUGCCGUACGGAACG, the yeast fitness is reported as ≤ 0.5.
With GAUCCGUUGGCGACAUGGUAACGCGUCUCCCUUCUAAGGAGAAGACUGCGGGUUCGAGUCCCAUACGGAACG the yeast fitness was ≤ 0.5.
With GUUCCGUUGGCGUAAUGGUAACGCAUCUCCCUCCUAAGGAGAAGACUGCGCGCUCGAGUCCCGUACGGAACG the yeast fitness was ≤ 0.5.
In the case of GUUCCGAUGGCCUAAUGGUAACGCGUCUCCCUCCUAAGGAGAAGACUGCGGGUUCGUGUCCCCAACGGAUCG, the yeast fitness is reported as ≤ 0.5.
For GUUCCGUUGGCGUAAUGGUAACGCGUGUCCCUCCUAAGGAGAAGACUACGGGUUCGAGGCCCGUACGGAACG, the yeast fitness was ≤ 0.5.
With GUUCUGUUGGCGUAAUGCUAACGCGCCUCUGUCCUAAGGAGAAGACUGCGGGUUCGAGUCCCGUACGGACCG the yeast fitness was ≤ 0.5.
With GUUUGGUUGGCGUAAUGGUAACGCGUCUCCCUCCUAAGGAGAAGAGUGCGGCUUCGAGUCCGGUAUGGAACG the yeast fitness was ≤ 0.5.
With GUUCCGUUGGCGUAAUGGUAACGCGUCUCCCUUCUAAGGAGAAGACUGCGGGUUCGAAUCGCGUACGGAUCG the yeast fitness was ≤ 0.5.
For GUUCCGUUGGCGUAAUGGUAACGCGUCUCCCUCCUAAGGAGAAAACUGCGGGUUCGAGUCCCGUCCGGAACG, the yeast fitness was 1.05.
In the case of GUUCCGUUGGCCUAAUGGUAACGCGUAUCCCUCCUAGGGAGAAGACUGUGGGUUCGAGUCCCGUACGGAACG, the yeast fitness is reported as ≤ 0.5.
With GUUCCGUUGCCGUAAUGGUAACGCGUCUCCCUCCUAAGGAGUAGACUGCGGGUUCGAGUCUUGUACGGAACG the yeast fitness was ≤ 0.5.
In the case of GCUCCGUUGGCGUAAUGAUAACGCAUCUCCCUCCUAAGGAGAAGACUGCGGGUUCGAGUCCCGUACGGAACG, the yeast fitness is reported as 0.599.
In the case of GUUCGGUUGCCGGAAUGGUAACGCGUCUCCCUCCUAAGGGGAAGACUGCGGGUACGAGUCCCGUACGGAACG, the yeast fitness is reported as ≤ 0.5.
With GUUCCGUUGGCGUAAGGGUAACGCGUCUCGCUCCUAAGGAGAAGACUGCGGGUUCGUGGCCCGUACGGAACG the yeast fitness was ≤ 0.5.
In the case of GUUCCGUUGGCGUAAUGGUAACGCGUCUCUUUCCUAGGGAGAGGACUGCGGGUUCGAGUCCCGUACGGAACG, the yeast fitness is reported as ≤ 0.5.
With GUUCCGUUGGCGUAAUAGAAACACGUCUCCUUCAUAAGGAGAAGACUGCGGGUUCGAGUCCCGUACGGAACG the yeast fitness was ≤ 0.5.
With GUUCCGUUAGCGUAAUGGUAACGCGUCUCCCUCCUACGGAGACGACUGCGGGUUCGAGACCCGUACGGGACG the yeast fitness was ≤ 0.5.
With GUUCCGUUGGAGUAAUGGUAACGGGUCUCCCUCUUAAGGAGAAGACUGCGGGAUCGAGUCCCGUACGCAACG the yeast fitness was ≤ 0.5.
With GUUCCGUUGGCGUAAUGGUAACGCGUCUCCCUUCUAAGGAGAAGACUACGGGUUCGAGUUCCGGUCGGCACG the yeast fitness was 0.571.
For GUUCCGUUGGCGUGGUGGUAACGCGUCUCCCUCCUAAGGAGAAGACUGCGGGUUCGAGUCUCGUACGGGACG, the yeast fitness was ≤ 0.5.
With GUUCCGUCGGCGUAAUGGUAACGCGUCUCCCUCCUAAGGAGUAGACUGCGGGUUCGAGUCCAGUAUGGAACG the yeast fitness was ≤ 0.5.
For GUUCUGUUGGUGUAAUGGUAACGCGUCUCCCUGCUAAGGAGACGACUGCGGGUUCGAGUCCCGUACGGUACG, the yeast fitness was ≤ 0.5.
For GUUCCGUUGGCAUAAUGGUAACGCGUCUCCCUCCUAAGGAGAAGACUGCGGGUUCGAGUCCCGUUCGGAACG, the yeast fitness was 0.861.
For GUUCCGUUGGGGUAAUGGUAACGCGUCUCACUCCUAGGGAGAAGAUUGCGGGUUCGCGUCCCGUACGGAACG, the yeast fitness was ≤ 0.5.
With GUUCCGUUGGACUAAUGGUAACGCGCCUCCCUCCUAAGGAGAAGACUGCGGGUUCGAGUCCCGUACGGAACG the yeast fitness was ≤ 0.5.
In the case of GUUCCGUUGGCGGAAUGGUUACGCGUCCCCCUCCUAAGGAGAAGACUGCGGGUUCGAGACCCGUACGGAACG, the yeast fitness is reported as ≤ 0.5.
For GUUCCGUUGGCGUCAUGGUAACGCGUCUCCAUCCUAAGGAGAAGACUGCGGGUUUGAGCCCUGUACGGAACG, the yeast fitness was ≤ 0.5.
For GUUCCCUUGGCGCGAUGGUCACGCGUCUCCCUCCUAAGGAGAAGACUGCGGGUUCGAGUCCCGAACAGAACG, the yeast fitness was ≤ 0.5.
For GUUUCGUUGGUGUAAUGGUAACCCGUCUCCUUCCUAAGGAGAAGACUGCGGGUUCGAGUCCCGUACGGAACG, the yeast fitness was ≤ 0.5.
For GUUCCGUUGGCGUAAUGGUAACGCGUAUCCCUCCUAAGGAGAAGCAUGCGAGUUCGAGUUCCGUACCGAGCG, the yeast fitness was ≤ 0.5.
For GUUCCAUUGGCGUGAUGAUAACGCGUCUCCCUCCUAAGGAGCAGACUGCGGGUUCGAGUCCAGUACGGAACG, the yeast fitness was ≤ 0.5.
For GUUACGUUGGCGUAAUGGUAACGCGUCUCCCUCCUCAGGAGAAGACUGCGGGUUCGGGUCCCGUUCGGAACG, the yeast fitness was ≤ 0.5.
In the case of GGUUCGUUGGCGUAAUGGUAACGUGUCUCCCUCCUAAGGAGAAGACUCCGGGUUCGAGUGCCGUACAGAACG, the yeast fitness is reported as ≤ 0.5.
For GUUCCGCUGCCGUAAUGGUGACGCGUCUCCCUCCUAAGGAGACGACUGCGGGUUCGAGUCCCGUACGGAACG, the yeast fitness was ≤ 0.5.
For GUUCCGUUCGCGUAAUGGUAACGCGUCUGCCUCGUAAGGAGAAGACUGCGGGUUCGAGUCCAGUAUGGAACG, the yeast fitness was ≤ 0.5.
In the case of GUUCCGUUGCCGUAAUGGUAACGCGUCUCCAUCCUAAGGAGAAGACUGCGGGUUCAAGUCCCGUGAGCAACG, the yeast fitness is reported as ≤ 0.5.

Reference: the RNAGym collection of RNA variant scans (doi:10.1126/science.aae0568)
